## Library screening results

By UniProt entry, the sequences of proteins in these tests, tags left out.
UniProt E9BF75, entry or part of it: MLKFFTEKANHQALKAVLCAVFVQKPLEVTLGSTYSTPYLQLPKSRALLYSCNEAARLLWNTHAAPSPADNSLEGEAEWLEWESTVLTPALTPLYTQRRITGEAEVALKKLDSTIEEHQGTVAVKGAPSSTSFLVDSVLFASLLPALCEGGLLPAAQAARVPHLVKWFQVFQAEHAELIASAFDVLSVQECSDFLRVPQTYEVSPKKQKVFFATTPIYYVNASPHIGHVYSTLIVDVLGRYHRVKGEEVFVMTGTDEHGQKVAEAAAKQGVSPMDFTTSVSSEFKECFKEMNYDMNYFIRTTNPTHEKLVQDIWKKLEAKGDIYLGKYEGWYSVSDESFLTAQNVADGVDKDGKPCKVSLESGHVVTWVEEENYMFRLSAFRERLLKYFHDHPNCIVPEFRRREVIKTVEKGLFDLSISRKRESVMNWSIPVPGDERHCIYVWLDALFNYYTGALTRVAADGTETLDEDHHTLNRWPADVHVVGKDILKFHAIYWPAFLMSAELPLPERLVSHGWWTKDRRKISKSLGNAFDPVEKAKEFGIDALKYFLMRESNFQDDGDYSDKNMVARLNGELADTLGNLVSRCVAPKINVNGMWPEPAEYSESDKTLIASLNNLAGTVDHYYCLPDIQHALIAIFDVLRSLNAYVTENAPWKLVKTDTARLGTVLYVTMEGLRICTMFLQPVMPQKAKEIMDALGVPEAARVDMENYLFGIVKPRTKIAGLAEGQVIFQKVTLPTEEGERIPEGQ

LdMetRS: 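Primary screen of methionyl-tRNA synthetase; the read-out is not stated. Target: Methionyl-tRNA synthetase (putative), Leishmania donovani (UniProt E9BF75). The test concentration is not given. The values are filed as inhibition. Of about 68,000 compounds tested this way, about 24 (0.035%) reached 50% or more in at least one test.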
Mtb heat-shock: 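Assay on Mycobacterium tuberculosis, filed only as a heat shock assay from Cornell; the read-out is not stated. The concentration is filed as 10 mM, unlikely as a test dose, so the dose is not known. Higher reads as stronger inhibition (inferred: compounds with an IC50 in retests scored well above the rest). Size under these conditions: about 69,000 compounds, about 930 of them at 50% or above in at least one test.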

Results are percentages, as filed.
The controls that fix the scale are not given in the record; negative values are as filed.
Compounds were drawn at random from those tested, without regard to their results.
A dash means the value is not listed here; it may have been measured.

compound	LdMetRS	Mtb heat-shock
Cn1cc2c(n1)C(CNCc1ccco1)OCC2.O=C(O)C(F)(F)F.O=C(O)C(F)(F)F (centres unmarked)	-	-43.95
O=C(CCc1nnc(-c2ccccc2)o1)N1CCCC1c1ccccn1 (centres unmarked)	10.08	-13.79
Cc1nn(C)c(N(C)C)c1CNCC(O)c1ccccc1F (centres unmarked)	8.262	3.14
O=C(O)C(F)(F)F.[H][C@@]12CN(Cc3ccncc3)CC[C@]1([H])CN(c1ccc(C)nn1)C2	-	9.547
Cc1cccc(OCCCN2CCC(N(C)Cc3noc(C)n3)C2)c1 (centres unmarked)	14.21	-4.191
Cc1nc(Nc2nnc(C)s2)cc(C2CCCN2c2ccncn2)n1 (centres unmarked)	8.414	-21.75
CCC(NC(=O)c1nn(C)cc1C(=O)O)c1ccccc1 (centres unmarked)	9.459	-2.943
COCC(=O)N1CCCC(c2nc(N(C)C)ncc2-c2ccccc2)C1 (centres unmarked)	0.9524	18.88
Cc1ccc(CN2CCc3c(COC(C)C)nn(C)c3C2)s1	15	-
Cc1ccc([C@@H]2CN(S(=O)(=O)N3CCC(C)CC3)C[C@H]2N(C)C)cc1	12.81	14.79
CCc1ccc(C(=O)N2CCCN(Cc3csc(CC)n3)CC2)o1	11.34	12.62

Measurements from “University of Dundee, Small-Polar-MMV Screening Library” (2021), ChEMBL document CHEMBL3988442.